Test results reported in patent publication US4308380A, “2-Lower alkyl-2 or 3-cephem-4-carboxylic acid derivatives” (Fujisawa Pharmaceutical Co., Ltd., priority 1973, dated 1981).
At least one compound was matched to its structure with a doubt left.

Experiments:
[1] = test system: E. coli 327; test: in vitro MIC against E. coli 327 at different inoculum sizes (Table 2); assay type: cell-based
[2] = test system: E. coli 327; test: protecting effect against experimental infections in mice; assay type: in vivo, mice (male ICR strain); conditions: Table 2
Protocol: The following test describes the method of estimating the protecting effects of Applicants' compound (18) versus cited […], "Keflex", against experimental infections in mice.
Male ICR strain mice aged 4 weeks, each weighing 20-23 g were used in groups of 8 mice. The organisms precultured overnight at 37° C. on HI-agar were suspended in 5% mucin solution to obtain cell concentrations of 8.5×10^2 cells/mouse. Mice were inoculated intraperitoneally with 0.5 ml of the suspension. Each of the test antibiotics was given subcutaneously to the mice one hour after challenge. The ED50 values were found by the probit method from the number of surviving mice after one week of observation.

SMILES: CC1C=C(C(=O)O)N2C(=O)C(NC(=O)C(N)c3ccccc3)C2S1 (centres unmarked) [Applicants' compound (18), 2-Methyl-7-(2-phenylglycyl)-amino-3-cephem-4-carboxylic acid]
- antimicrobial activities in vitro compared with cited compound (18) Keflex [1]: inferior to those of cited compound (18)
- antimicrobial activities in vivo compared with cited compound (18) Keflex [2]: superior to those of the cited compound (18)
